The test concerns the target v3 integrin (alpha-v beta-3; the Greek letters are lost in the filing's text) on Calu-3 human lung carcinoma cells (human) (UniProt P06756+P05106). The experiment in a line: fluorescence microscopy of the Alexa-Fluor 488 labeled mutant on Calu-3 cells expressing v3 integrin.

Amino acid sequences for entries named in this document (tags omitted). A change or cut given only in a name is not applied to a line headed by its entry.
UniProt P06756: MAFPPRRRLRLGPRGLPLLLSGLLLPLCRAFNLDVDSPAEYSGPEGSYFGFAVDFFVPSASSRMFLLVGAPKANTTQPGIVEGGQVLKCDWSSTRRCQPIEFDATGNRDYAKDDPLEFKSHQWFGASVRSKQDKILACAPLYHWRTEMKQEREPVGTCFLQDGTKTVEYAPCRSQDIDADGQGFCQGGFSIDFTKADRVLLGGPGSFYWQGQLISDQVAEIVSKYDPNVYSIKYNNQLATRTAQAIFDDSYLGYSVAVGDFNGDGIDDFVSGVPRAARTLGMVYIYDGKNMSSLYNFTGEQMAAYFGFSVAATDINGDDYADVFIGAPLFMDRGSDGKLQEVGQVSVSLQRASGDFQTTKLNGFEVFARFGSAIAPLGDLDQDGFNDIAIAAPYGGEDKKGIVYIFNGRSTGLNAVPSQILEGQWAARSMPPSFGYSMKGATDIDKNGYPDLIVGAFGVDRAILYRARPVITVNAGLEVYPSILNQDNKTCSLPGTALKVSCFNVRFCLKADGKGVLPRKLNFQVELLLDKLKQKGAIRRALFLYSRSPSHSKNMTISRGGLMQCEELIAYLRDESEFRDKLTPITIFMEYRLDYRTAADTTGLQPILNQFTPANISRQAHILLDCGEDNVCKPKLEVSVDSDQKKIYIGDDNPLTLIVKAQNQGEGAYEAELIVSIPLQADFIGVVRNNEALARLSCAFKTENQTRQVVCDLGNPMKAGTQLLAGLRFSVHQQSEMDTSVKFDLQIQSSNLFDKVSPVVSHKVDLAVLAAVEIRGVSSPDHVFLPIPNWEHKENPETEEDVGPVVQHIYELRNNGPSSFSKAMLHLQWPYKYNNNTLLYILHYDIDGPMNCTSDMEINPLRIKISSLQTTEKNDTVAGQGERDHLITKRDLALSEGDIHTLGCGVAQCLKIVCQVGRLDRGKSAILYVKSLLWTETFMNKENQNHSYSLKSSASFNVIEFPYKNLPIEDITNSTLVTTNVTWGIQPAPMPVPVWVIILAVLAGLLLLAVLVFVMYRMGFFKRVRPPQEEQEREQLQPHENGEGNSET
UniProt P05106: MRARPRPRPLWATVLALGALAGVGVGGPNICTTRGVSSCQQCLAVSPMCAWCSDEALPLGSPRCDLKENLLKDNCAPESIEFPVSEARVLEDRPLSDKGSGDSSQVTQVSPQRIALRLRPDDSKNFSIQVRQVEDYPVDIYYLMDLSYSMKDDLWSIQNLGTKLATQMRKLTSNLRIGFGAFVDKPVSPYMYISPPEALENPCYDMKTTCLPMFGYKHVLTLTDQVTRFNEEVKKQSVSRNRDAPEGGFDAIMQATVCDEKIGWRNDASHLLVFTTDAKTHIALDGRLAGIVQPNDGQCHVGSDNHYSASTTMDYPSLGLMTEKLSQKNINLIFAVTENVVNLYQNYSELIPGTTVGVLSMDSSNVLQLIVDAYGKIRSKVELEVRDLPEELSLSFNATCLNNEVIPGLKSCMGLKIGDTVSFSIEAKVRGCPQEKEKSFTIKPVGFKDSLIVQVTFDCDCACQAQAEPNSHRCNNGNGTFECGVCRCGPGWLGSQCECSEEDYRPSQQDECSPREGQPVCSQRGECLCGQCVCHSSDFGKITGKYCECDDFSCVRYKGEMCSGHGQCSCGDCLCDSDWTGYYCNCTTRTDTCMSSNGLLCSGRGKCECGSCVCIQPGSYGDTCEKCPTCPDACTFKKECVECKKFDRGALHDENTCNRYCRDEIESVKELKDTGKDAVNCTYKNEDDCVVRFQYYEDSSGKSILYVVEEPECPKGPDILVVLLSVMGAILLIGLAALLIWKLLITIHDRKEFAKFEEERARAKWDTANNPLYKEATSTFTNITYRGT

Results are given in words; binding and its absence hold for the method and conditions named. Some binding calls cover weakened binding; strength is not graded here.

The text below walks through data of patent publication US20090092555A1 (published 2009).

B1: GKE-RGD PlyCB mutant (RGD substituted for G22K23E24 of PlyCB), octamer (designed binder)
chain: SKINVNVENVSGVQGFLFHTDRGDSYGYRAFINGVEIGIKDIETVQGFQQIIPSINISKSDVEAIRKAMKK
modifications: cross-linked with Alexa-Fluor 488 (sites not given)
As for B1, the binding entry is reported as “binds”.

B2: KES-RGD PlyCB mutant (RGD substituted for K23E24S25 of PlyCB), octamer (designed binder)
chain: SKINVNVENVSGVQGFLFHTDGRGDYGYRAFINGVEIGIKDIETVQGFQQIIPSINISKSDVEAIRKAMKK
modifications: cross-linked with Alexa-Fluor 488 (sites not given)
In the case of B2, the binding entry is given as “binds”.
